# Primary screen of a compound library

Measurements from “University of Dundee, Small-Polar-MMV Screening Library” (2021), ChEMBL document CHEMBL3988442.

The filed quantity is “Percent Effect” (%).
The controls that fix the scale are not given in the record; negative values are as filed.
The compounds are a random part of those screened.

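Whole-parasite assay of Trypanosoma brucei over 72 hours; the read-out is not stated. Concentration: 30 µM. The record gives no direction; compounds that gave an IC50 in retests scored well above the rest, so higher reads as stronger inhibition. Values scatter widely below zero; nearly all retest evidence comes from the higher of the two concentrations used. Size under these conditions: about 64,000 compounds, about 940 of them at 50% or above in at least one test.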

| # | SMILES | effect |
|---|---|---|
| 1 | `CC(=O)N1CCN(CCNc2snc(Cl)c2C#N)CC1` | 1.028 |
| 2 | `CCC1CN(C(=O)c2ccccc2C#N)CCN1C(C)C` (stereo not shown) | -37.68 |
| 3 | `Cc1nnc2n1CCN(C(=O)c1ccc(Cn3cccc3)cc1)C2` | -27.65 |
| 4 | `Cc1cnn(CC2CCCN2C(=O)c2ccc(OCC3CC3)nc2)c1` (stereo not shown) | 2.541 |
| 5 | `Cc1cc(C)nc(NCCSc2cnn[nH]2)n1` | 3.502 |
| 6 | `CC(NCCCC#N)c1ccc(-c2ccncc2)cc1` (stereo not shown) | -1.498 |
| 7 | `CN(C)c1nc2c(c(N3CCCC4(CC3)CNC(=O)O4)n1)CCCC2` (stereo not shown) | 52.4 |
| 8 | `CN(C)CCN(C(=O)Cc1ccc2c(c1)OCCO2)C1CCN(C)CC1.O=C(O)CC(O)(CC(=O)O)C(=O)O` | 31.41 |
| 9 | `Cc1csc(N2CCCN(C(=O)C(C)n3cncn3)CC2)n1` (stereo not shown) | -5.161 |
| 10 | `O=C(CCc1nc(Cl)n[nH]1)N1C[C@H](CO)C[C@H](CN2CCCC2)C1` | -0.5632 |
| 11 | `N#Cc1cc(F)c(NCc2ccc(F)cc2)c(F)c1` | -7.577 |
| 12 | `Cc1noc(C2CCN(C(=O)c3cc(Cl)c(Cl)n3C)CC2)n1` | -20.04 |
| 13 | `CCN(CC)C(=O)N1CCN(C(=O)C2CCCc3[nH]ncc32)CC1` (stereo not shown) | -15.39 |
| 14 | `[H][C@@]12CN(Cc3cccc(F)c3)C[C@]1([H])N(CCCN1CCOCC1)C(=O)O2` | 20.06 |
| 15 | `Cc1ccc(OCCC(=O)N2CCC(c3nncn3C)CC2)c(C)c1` | -17.91 |
| 16 | `Cc1cc(C)c2nc(CN3CC[C@@H](O)C3)cc(O)c2c1` | -7.441 |
| 17 | `CC(C)n1ccc(=O)nc1SC1CCN(c2ccccc2F)C1=O` (stereo not shown) | 9.946 |
| 18 | `Cc1cc(NC(=O)C(C)NCCn2cccn2)no1` (stereo not shown) | -49.3 |
| 19 | `Cc1ccoc1C(=O)N1CCC(n2cc(CO)nn2)CC1` | -33.73 |
| 20 | `CC(C)(C)c1nc(CNc2cc3c(cc2Cl)NC(=O)CO3)no1` | -17.14 |
| 21 | `O=C(O)C(F)(F)F.[H][C@@]12CCCO[C@]1([H])[C@H](Oc1ncccc1F)CN2S(=O)(=O)CCC` | 6.982 |
| 22 | `CCSc1ccc(NC(=O)NC2CCc3[nH]ncc3C2)cn1` (stereo not shown) | 15.71 |
| 23 | `CC(C)(CO)CNC(=O)c1cc(-c2cc[nH]n2)n2ccccc12.O=C(O)C(F)(F)F` | -17 |
| 24 | `COc1ccc(C)cc1NS(=O)(=O)c1ccc(CCNC(C)=O)s1` | -1.508 |
| 25 | `Cn1nc(C#N)c2c1CN(C(=O)c1ccnnc1)CCC2` | -96.57 |
| 26 | `[H][C@@]12CCN(C(=O)c3ccsc3)C[C@]1(c1nc(C)no1)CCO2` | -4.104 |
| 27 | `Cl.Cl.[H][C@@]12OCCC[C@]1([H])NC[C@H]2NC(=O)c1cccnc1` | -4.808 |
| 28 | `CCCOCC(=O)NS(=O)(=O)c1ccc2c(c1)OCCCO2` | -41.43 |
| 29 | `Cc1nn(CC(=O)N2CCN(Cc3cnn(C)c3C)CC2)cc1Cl` | -2.184 |
| 30 | `[H][C@@]12C[C@@H](C(=O)Nc3cccnc3)CN(Cc3nccs3)[C@]1([H])CCO2` | 36.58 |
| 31 | `COc1ccc2c(c1)CCCN2C(=O)CN1CCOC(C)C1` (stereo not shown) | -32.2 |
| 32 | `O=C(O)C(F)(F)F.O=C(O)C(F)(F)F.c1cncc(CN2CCOC(c3ncn4c(C5CC5)cccc34)C2)c1` (stereo not shown) | -54.46 |
| 33 | `Cc1[nH]ncc1CCCNC(=O)N1CCC(C(N)=O)CC1` | -40.85 |
| 34 | `Cc1cnn(CCNCc2ccccc2OCc2ccncc2)c1` | 9.034 |
| 35 | `CN(Cc1cn2c(n1)CN(C(=O)CC1CC1)CC2)Cc1ccco1.O=C(O)C(F)(F)F` | 13.03 |
| 36 | `c1ccc2c(N3CCOC(Cn4cccn4)C3)ncnc2c1` (stereo not shown) | -12.1 |
| 37 | `COc1cc(C(=O)N2CCCS2(=O)=O)ccc1C` | -21.44 |
| 38 | `CNC(=O)NC(=O)CN(C)C(c1cccnc1)c1ccc(F)cc1F` (stereo not shown) | -39.3 |
| 39 | `CN(CCC#N)C(=O)Cn1nnnc1C(C)(C)C` | -35.79 |
| 40 | `CN(C)c1ccc(CN(CCCn2ccnc2)Cc2c[nH]cn2)cc1.O=C(O)CC(O)(CC(=O)O)C(=O)O` | 101.7 |
| 41 | `CCOc1ncccc1CNS(=O)(=O)c1ccc2c(c1)CCO2` | -25.93 |
| 42 | `CC(C)c1ccc(O)c(C(=O)N2CCN(Cc3cscn3)CC2)c1` | 20.02 |
| 43 | `CN1CC2(CCN(Cc3cccnc3)CC2)c2cc(F)ccc21` | -24.44 |
| 44 | `CCS(=O)(=O)N1CCCn2nnc(Cn3cccc3)c2C1` | 2.014 |
| 45 | `CCn1nc(C)cc1C(=O)NCc1noc(C(C)(C)C)n1` | -20.52 |
| 46 | `CCCC(C)NC(=O)c1ccc(-c2ccco2)[nH]c1=O` (stereo not shown) | -8.408 |
| 47 | `O=C(O)C(F)(F)F.[H][C@@]12C[C@H](C(=O)N3CCCCO3)CN(Cc3ccccc3C)[C@]1([H])CCO2` | -33.74 |
| 48 | `O=C(O)C(F)(F)F.O=C(O)C(F)(F)F.[H][C@@]12CN(Cc3ccc(OC)cc3)C[C@]1([H])OCCN2c1ncccn1` | -40.73 |
| 49 | `CN1CCc2[nH]nc(C(=O)N3CCCC4(CN(C)C(=O)O4)C3)c2C1` (stereo not shown) | 2.876 |
| 50 | `O=C(NCc1cccnc1)Nc1ccn(CC(F)F)n1` | -44.89 |
| 51 | `CC(C)c1cc(N2CCC3(CC2)CN(C)CCN3C)ncn1` | -12.21 |
| 52 | `COc1cccc(CCCNC(=O)N2CCC(O)(C(F)(F)F)C2)c1` (stereo not shown) | -0.9967 |
| 53 | `CCc1cnc(CN(C)C2CCN(CCc3ccccn3)C2)o1` (stereo not shown) | -40.16 |
| 54 | `Cc1ccc(CC(=O)NCC(Cc2ccc(F)cc2)C(N)=O)cn1` (stereo not shown) | -12.8 |
| 55 | `Cc1noc(C)c1CCC(=O)N1CCN(CCn2cncn2)CC1` | -16.16 |
| 56 | `COC(=O)[C@@H]1CN(C(=O)Nc2ccccc2)CCN1C(C)=O` | -7.68 |
| 57 | `CCCC(=O)NC1CCc2c(ccc(=O)n2Cc2csc(C)n2)C1.O=C(O)C(F)(F)F` (stereo not shown) | -83.76 |
| 58 | `CCOc1ncc(NC(=O)c2ccco2)c(OCC)n1` | -0.08382 |
| 59 | `Cn1nc(C(=O)N2CCOCC2)cc1C(=O)Nc1ncc(Cl)cc1Cl` | -75.15 |
| 60 | `CCc1cc(N[C@@H]2CC[C@@H](N)C2)n2nc(C)c(C)c2n1` | -11.36 |
| 61 | `CC(C)n1cc(CN2CCCN(C(=O)c3cc(Cl)c[nH]3)CC2)cn1` | -6.436 |
| 62 | `Cc1c(NC(=O)NC2CCOCC2)cccc1C(=O)N1CCCC1` | -13.45 |
| 63 | `CN1CCc2[nH]nc(C(=O)N3CCC4(CN(C)C(=O)O4)C3)c2C1` (stereo not shown) | 3.142 |
| 64 | `CNC(=O)N(C)CC1(c2ccc(Br)cc2)CC1` | -2.829 |
| 65 | `COc1ccccc1N1CCCC(Nc2ncccn2)C1=O` (stereo not shown) | -23.75 |
| 66 | `[H][C@@]12CS(=O)(=O)C[C@]1([H])N(C(=O)CSc1ccccn1)CCN2CC=C(C)C` | -48.02 |
| 67 | `COc1ccc(CCNC(=O)C2CCOC2)c(Cl)c1` (stereo not shown) | -32.15 |
| 68 | `Cc1noc(C)c1CN1CCc2ncnc(-c3ccc(F)cc3)c2CC1.O=C(O)C(F)(F)F` | -81.82 |
| 69 | `CC(C)(CNC(=O)C1(c2ccccc2)CCOCC1)C(=O)O` | 3.77 |
| 70 | `CCC1CCCCCN1C(=O)c1nnc2ccccc2c1N` (stereo not shown) | -23.95 |
| 71 | `NC(=O)C1CN(C(=O)Nc2ccccc2Oc2ccccc2Cl)CCO1` (stereo not shown) | -7.491 |
| 72 | `CCN1CCCC(O)(CNCc2ccccc2F)C1` (stereo not shown) | -11.4 |
| 73 | `Cc1ccc(NC2CCN(C(=O)c3cccc4c3ccn4C)CC2)nn1` | 18.68 |
| 74 | `CN(Cc1cccs1)c1nc2c(cnn2C(C)(C)C)c(=O)[nH]1` | 1.342 |
| 75 | `CN(C)C(c1ccccn1)[C@H]1CC[C@H](CNC(=O)C2CCCC2)CC1` (stereo partly shown) | 5.967 |
| 76 | `COC(=O)[C@H](C)NC(=O)c1cnc(Cc2ccc(F)cc2)s1` | -13.51 |
| 77 | `CC(C)n1cnnc1C1CCCN(S(=O)(=O)CCCC#N)C1` (stereo not shown) | -28.29 |
| 78 | `Clc1cc(NCc2ncc[nH]2)nc2[nH]ccc12` | -49.37 |